Laboratory results from the supplement of paper PMC10849652.
The other results are listed elsewhere or left out.

Amino acid sequences for entries named in this document (tags omitted). A change or cut given only in a name is not applied to a line headed by its entry.
UniProt P08174: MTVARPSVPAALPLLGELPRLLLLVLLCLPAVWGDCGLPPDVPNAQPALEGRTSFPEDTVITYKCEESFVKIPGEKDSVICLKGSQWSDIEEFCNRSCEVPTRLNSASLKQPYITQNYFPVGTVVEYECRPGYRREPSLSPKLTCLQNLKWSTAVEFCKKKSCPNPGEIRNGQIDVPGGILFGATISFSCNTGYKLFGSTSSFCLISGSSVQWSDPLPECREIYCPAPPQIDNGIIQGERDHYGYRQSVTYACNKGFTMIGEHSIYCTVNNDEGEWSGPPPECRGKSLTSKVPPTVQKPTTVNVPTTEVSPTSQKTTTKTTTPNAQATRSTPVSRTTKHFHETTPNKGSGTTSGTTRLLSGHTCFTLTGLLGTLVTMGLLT
UniProt P50990: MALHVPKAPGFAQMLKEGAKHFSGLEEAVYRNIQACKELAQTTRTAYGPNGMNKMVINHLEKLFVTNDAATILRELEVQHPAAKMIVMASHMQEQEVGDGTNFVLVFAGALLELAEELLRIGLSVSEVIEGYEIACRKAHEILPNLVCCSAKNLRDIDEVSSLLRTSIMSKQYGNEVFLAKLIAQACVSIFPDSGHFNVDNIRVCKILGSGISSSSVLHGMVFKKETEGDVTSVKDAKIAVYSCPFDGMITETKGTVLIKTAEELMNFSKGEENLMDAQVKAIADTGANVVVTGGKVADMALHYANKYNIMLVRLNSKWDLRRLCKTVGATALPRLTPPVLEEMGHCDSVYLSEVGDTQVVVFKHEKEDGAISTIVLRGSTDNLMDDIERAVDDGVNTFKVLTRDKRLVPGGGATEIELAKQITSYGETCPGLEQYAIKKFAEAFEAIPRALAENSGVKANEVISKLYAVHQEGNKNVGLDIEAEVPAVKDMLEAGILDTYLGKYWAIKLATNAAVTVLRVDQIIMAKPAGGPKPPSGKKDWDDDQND
UniProt P16070: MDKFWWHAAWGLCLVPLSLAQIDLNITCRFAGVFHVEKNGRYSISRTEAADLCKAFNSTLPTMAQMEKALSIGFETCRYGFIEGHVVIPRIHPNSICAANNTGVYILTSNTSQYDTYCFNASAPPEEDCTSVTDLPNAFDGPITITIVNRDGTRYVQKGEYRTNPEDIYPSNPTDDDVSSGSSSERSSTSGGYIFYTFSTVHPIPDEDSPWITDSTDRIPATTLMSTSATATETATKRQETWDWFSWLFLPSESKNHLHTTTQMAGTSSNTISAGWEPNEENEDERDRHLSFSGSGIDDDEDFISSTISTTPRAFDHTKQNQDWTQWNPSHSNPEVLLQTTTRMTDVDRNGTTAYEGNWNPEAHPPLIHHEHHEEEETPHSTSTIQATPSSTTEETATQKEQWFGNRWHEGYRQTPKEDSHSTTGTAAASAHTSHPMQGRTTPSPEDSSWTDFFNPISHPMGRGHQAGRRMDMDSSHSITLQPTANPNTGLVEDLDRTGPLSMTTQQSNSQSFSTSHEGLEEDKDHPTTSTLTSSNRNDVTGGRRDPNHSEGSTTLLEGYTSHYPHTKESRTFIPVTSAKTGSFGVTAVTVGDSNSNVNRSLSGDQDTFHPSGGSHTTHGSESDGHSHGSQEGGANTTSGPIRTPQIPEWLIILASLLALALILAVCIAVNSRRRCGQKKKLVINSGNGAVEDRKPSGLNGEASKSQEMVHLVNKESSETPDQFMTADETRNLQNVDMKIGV
UniProt Q96A19: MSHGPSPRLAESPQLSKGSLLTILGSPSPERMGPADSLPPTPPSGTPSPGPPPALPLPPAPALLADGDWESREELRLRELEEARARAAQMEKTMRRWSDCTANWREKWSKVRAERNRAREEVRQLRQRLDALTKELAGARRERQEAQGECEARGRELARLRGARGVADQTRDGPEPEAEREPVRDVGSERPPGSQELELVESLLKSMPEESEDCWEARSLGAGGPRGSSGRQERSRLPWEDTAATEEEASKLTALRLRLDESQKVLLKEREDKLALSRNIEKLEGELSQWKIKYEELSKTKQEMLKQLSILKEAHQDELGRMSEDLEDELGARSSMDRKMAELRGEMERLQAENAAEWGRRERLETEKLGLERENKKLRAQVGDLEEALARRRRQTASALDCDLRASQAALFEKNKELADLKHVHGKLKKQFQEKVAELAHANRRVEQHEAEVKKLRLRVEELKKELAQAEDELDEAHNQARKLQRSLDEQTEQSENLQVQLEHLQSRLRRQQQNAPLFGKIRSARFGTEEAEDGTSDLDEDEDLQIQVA
UniProt A2RUR9: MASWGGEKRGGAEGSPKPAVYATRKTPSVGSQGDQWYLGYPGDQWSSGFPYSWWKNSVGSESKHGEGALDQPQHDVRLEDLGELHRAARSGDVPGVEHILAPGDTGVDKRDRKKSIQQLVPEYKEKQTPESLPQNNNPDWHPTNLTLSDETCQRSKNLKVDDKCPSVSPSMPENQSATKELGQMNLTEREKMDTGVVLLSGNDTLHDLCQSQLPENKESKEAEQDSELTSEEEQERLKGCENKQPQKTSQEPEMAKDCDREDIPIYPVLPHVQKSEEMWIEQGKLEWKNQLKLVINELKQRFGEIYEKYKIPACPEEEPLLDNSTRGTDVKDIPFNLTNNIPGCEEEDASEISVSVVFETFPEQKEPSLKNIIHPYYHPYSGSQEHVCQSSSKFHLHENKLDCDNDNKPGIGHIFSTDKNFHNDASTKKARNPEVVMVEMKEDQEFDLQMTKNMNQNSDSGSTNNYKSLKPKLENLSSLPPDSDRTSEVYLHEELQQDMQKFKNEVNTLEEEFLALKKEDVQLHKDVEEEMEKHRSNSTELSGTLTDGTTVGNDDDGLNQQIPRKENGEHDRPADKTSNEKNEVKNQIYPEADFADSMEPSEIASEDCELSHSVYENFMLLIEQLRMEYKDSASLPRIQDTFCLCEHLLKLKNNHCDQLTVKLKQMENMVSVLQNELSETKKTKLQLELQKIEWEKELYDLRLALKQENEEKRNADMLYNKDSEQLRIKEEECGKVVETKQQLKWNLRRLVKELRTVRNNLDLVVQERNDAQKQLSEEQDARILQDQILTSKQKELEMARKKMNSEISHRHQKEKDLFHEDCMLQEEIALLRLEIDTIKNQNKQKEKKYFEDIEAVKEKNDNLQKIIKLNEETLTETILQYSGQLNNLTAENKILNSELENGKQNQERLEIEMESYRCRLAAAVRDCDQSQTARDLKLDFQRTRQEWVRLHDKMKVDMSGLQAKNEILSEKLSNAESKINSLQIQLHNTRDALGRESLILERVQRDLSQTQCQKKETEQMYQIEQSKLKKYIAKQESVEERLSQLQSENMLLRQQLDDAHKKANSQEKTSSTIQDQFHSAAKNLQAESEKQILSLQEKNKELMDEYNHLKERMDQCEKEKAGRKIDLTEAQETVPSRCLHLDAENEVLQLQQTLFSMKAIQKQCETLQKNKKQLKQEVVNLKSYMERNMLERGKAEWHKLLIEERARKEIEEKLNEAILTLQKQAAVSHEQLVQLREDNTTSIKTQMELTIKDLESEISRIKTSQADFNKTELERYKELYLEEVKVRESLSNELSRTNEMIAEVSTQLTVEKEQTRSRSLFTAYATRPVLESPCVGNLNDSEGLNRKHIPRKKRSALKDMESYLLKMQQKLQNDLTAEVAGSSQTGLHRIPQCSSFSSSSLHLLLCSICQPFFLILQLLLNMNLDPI
UniProt Q96EE4: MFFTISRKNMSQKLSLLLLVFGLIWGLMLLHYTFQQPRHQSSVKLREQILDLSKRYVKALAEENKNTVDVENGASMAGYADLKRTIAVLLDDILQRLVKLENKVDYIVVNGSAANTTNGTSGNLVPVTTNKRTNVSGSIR
UniProt Q8IVM0: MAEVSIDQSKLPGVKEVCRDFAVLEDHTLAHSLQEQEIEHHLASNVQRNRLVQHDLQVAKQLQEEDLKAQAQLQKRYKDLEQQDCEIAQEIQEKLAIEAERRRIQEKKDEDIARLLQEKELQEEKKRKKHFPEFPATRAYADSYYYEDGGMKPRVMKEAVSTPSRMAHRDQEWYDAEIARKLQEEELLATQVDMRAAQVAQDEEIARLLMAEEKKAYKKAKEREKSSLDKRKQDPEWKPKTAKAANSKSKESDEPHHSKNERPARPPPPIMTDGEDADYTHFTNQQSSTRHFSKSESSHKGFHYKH
UniProt Q4G0S7: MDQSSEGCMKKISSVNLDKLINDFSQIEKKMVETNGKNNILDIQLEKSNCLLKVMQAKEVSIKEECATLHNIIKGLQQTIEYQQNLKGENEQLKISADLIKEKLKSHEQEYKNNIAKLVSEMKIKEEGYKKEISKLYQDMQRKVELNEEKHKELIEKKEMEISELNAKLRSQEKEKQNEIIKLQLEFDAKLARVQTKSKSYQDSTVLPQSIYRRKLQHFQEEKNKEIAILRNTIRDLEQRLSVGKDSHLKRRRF
UniProt P55210: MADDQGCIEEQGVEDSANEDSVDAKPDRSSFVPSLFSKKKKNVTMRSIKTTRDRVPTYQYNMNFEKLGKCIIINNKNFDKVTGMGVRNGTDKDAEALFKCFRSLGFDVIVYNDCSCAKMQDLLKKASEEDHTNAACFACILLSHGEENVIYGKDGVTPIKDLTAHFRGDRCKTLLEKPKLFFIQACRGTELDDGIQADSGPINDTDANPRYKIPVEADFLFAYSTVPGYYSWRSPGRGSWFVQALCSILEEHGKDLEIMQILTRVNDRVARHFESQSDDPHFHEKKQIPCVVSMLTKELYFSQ
UniProt Q96MW1: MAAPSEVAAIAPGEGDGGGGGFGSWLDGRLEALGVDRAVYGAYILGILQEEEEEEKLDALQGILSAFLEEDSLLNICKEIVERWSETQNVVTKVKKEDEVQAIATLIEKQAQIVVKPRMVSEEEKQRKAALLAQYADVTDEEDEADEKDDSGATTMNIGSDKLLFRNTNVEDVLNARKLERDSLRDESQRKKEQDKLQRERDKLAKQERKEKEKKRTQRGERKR
UniProt P30279, whole entry, looked up: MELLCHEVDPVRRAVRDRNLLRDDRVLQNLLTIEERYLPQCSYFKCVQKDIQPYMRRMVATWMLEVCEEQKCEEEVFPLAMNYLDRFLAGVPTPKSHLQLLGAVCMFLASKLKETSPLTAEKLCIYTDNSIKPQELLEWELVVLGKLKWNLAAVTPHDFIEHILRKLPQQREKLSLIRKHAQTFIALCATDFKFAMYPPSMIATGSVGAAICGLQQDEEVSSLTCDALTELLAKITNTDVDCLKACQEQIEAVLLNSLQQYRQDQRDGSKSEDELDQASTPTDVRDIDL
UniProt Q5ZPR3: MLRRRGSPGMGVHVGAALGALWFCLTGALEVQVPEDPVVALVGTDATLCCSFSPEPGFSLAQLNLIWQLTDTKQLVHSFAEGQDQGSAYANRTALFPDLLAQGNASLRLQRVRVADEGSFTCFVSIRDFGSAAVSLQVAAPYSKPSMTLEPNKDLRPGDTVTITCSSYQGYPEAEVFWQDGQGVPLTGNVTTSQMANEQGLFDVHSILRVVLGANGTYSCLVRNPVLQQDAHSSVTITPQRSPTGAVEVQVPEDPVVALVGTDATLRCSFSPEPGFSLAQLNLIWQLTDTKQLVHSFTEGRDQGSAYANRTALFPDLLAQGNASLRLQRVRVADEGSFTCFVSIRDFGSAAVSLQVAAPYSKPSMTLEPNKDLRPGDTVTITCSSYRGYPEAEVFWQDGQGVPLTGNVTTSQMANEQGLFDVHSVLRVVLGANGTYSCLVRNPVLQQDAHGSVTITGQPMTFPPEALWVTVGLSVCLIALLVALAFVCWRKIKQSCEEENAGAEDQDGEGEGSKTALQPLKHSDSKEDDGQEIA
UniProt P15529: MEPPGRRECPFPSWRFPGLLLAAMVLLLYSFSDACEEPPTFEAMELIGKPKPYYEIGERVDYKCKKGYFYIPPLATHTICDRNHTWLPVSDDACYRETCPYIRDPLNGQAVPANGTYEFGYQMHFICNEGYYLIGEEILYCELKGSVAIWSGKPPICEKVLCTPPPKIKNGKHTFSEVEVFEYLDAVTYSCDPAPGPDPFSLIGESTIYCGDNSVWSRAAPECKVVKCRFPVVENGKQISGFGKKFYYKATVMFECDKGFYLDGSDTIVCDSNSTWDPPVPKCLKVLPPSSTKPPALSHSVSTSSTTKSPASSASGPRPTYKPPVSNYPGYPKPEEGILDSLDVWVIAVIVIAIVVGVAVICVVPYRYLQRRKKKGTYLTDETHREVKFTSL
UniProt Q04900: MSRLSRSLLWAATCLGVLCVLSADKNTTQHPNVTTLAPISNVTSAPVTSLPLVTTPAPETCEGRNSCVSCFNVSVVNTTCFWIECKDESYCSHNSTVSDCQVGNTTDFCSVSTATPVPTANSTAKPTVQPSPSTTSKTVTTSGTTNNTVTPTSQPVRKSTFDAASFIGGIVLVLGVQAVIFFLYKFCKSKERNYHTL
UniProt P30281: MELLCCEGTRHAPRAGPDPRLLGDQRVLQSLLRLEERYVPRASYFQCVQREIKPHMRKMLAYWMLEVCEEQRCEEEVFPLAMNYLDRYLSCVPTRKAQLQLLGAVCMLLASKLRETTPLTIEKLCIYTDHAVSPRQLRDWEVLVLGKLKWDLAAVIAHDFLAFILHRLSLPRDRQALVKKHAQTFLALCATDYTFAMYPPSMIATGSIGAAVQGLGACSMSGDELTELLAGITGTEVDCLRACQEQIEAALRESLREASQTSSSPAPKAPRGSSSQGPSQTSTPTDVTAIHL

Tests used:
Assay in all cases: log2 fold change, soluble protein after heating vs DMSO (PISA); higher = thermal stabilisation; K562 lysate, 10 uM; active = over 0.2 and 3.5 SD of the protein, either way, in both replicates (recomputed)
[1] = compound: C#Cc1cccc(Nc2ncnc3cc(OCCOC)c(OCCOC)cc23)c1 [erlotinib]
How it was run: (§1)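 K562 pellets were dounce-homogenised in PBS pH 7.4 containing 1 mM MgCl2, and the crude extract, at 1 mg/mL protein, was exposed to 10 μM compound for 30 min. Aliquots were heated for 3 min across 48°C-58°C, pooled, brought to 0.5% NP-40 at 4°C and spun at 21,000xg for 90 min, with the supernatant taken as soluble protein. TMTpro 16plex LC-MS/MS with equalised channel sums quantified that protein. Values are log-two fold changes in thermal stability relative to solvent controls, taken from duplicates.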

[2] = compound: C/C(=N\NC(=O)C1=CC(=CC=C1)S(=O)(=O)N2CCOCC2)/C3=C(C=CC(=C3)Cl)O
How it was run: as §1

[3] = compound: C1=CC(=CC=C1C2=NC3=C(N2)C=C(C=C3)C(=O)N)OC4=CC=C(C=C4)Cl
How it was run: as §1

[4] = compound: C1=CC2=C(C=CC(=C2)/C=C\3/C(=O)NC(=NCC4=CC=CS4)S3)N=C1
How it was run: as §1

[5] = compound: C1=CC2=NC=CN=C2C=C1/C=C/3\C(=O)NC(=O)S3
How it was run: as §1

[6] = compound: C1=CC=C(C=C1)C2=NC(=C(N2)C3=CC=NC=C3)C4=CC(=C(C=C4)Cl)O
How it was run: as §1

[7] = compound: C1=CC=C2C(=C1)C3=NNC4=CC=CC(=C43)C2=O
How it was run: as §1

[8] = compound: C1CCN(C1)C(=O)NC2=CC=CC(=C2)NC3=NC=C(C(=N3)NCCC4=CN=CN4)Br
How it was run: as §1

[9] = compound: C1CN(CCC1(CC2=CC=C(C=C2)Cl)N)C3=NC=NC4=C3C=CN4
How it was run: as §1

[10] = compound: C1COCCN1CCN2C3=CC=CC=C3N=C2NC(=O)C4=CC(=CC=C4)[N+](=O)[O-] [IRAK-1-4 Inhibitor I]
How it was run: as §1

[11] = compound: C=CC(=O)N1CCC[C@@H](n2nc(-c3ccc(Oc4ccccc4)cc3)c3c(N)ncnc32)C1 [ibrutinib]
How it was run: as §1

[12] = compound: CC(=O)c1cnc2ccc(-c3cc(Cl)c(O)c(Cl)c3)nc2c1N[C@H]1CC[C@H](CN(C)C)CC1
How it was run: as §1

[13] = compound: CC(C)(C)Cn1c(N)nc2ccc(-c3[nH]c(C(C)(C)C)nc3-c3ccc(F)cc3)nc21 [ralimetinib]
How it was run: as §1

[14] = compound: CC(C)(O)CC(=O)NCCn1ccc2ncnc(Nc3ccc(Oc4cccc(C(F)(F)F)c4)c(Cl)c3)c21
How it was run: as §1

[15] = compound: CC(C)C1=C2N=C(C=C(N2N=C1)NCC3=CC=CC=C3)NCCCCCCN
How it was run: as §1

[16] = compound: CC1=C(C(CC(=O)N1)C2=CC=C(C=C2)C(F)(F)F)C(=O)NC3=C(C=C4C(=C3)C=NN4)F
How it was run: as §1

[17] = compound: CC1=C(C2=C(C=C1)C(=O)C3=CC=CC=C3N2CCCN)C
How it was run: as §1

[18] = compound: CC1=C(C=C(C=C1)NC(=O)C2=CC(=CC=C2)C(C)(C)C#N)NC3=CC4=C(C=C3)N=CN(C4=O)C
How it was run: as §1

[19] = compound: CC1=C(C=C(C=C1)NC(=O)C2=CC(=CC=C2)N(C)C)NC(=O)C3=CC=C(C=C3)O
How it was run: as §1

[20] = compound: CC1=CC=C(C=C1)SC2=C3C=C(SC3=CN=C2)C(=O)N
How it was run: as §1

Measured: log2 fold change

CD55 isoform 7 (UniProt P08174)
inactive: [1] 0.003 | [2] 0.007 | [3] 0.11 | [4] -0.004 | [5] -0.026 | [6] -0.018 | [7] -0.013 | [8] 0.077 | [9] 0.099 | [10] 0.036 | [11] -0.008 | [12] -0.017 | [13] -0.04 | [14] -0.087 | [15] -0.004 | [16] -0.011 | [17] -0.026 | [18] 0.002 | [19] 0.007 | [20] 0.011

CCDC58 (UniProt Q4VC31)
inactive: [1] -0.073 | [2] -0.01 | [3] -0.035 | [4] 0.033 | [5] -0.019 | [6] 0.023 | [7] 0.072 | [8] 0.021 | [9] -0.037 | [10] -0.023 | [11] 0.044 | [12] -0.004 | [13] -0.028 | [14] 0.048 | [15] 0.015 | [16] -0.026 | [17] 0.04 | [18] -0.052 | [19] 0.006 | [20] 0.019

CCT8 (UniProt P50990)
inactive: [1] -0.001 | [2] 0.009 | [3] -0.002 | [4] -0.015 | [5] -0.024 | [6] 0.001 | [7] 0.015 | [8] 0.013 | [9] -0.002 | [10] 0.007 | [11] 0 | [12] -0.017 | [13] 0.001 | [14] -0.007 | [15] -0.007 | [16] -0.026 | [17] -0.001 | [18] -0.004 | [19] -0.004 | [20] -0.005

CD44 (UniProt P16070)
inactive: [1] -0.07 | [3] 0.05 | [8] -0.01 | [9] 0.026 | [15] -0.181 | [16] -0.015

CAV2 (UniProt P51636)
inactive: [1] -0.016 | [3] -0.018 | [6] 0.099 | [10] -0.064 | [12] 0.007 | [13] 0.01 | [14] -0.235 | [15] -0.13 | [17] 0.061 | [18] -0.008 | [19] 0.078 | [20] 0.114

CCP110 (UniProt O43303)
inactive: [1] 0.081 | [3] 0.046 | [4] -0.022 | [5] 0.03 | [6] -0.088 | [7] -0.047 | [8] -0.051 | [9] 0.051 | [10] 0.075 | [11] -0.008 | [13] 0.082 | [14] 0.001 | [15] 0.054 | [17] -0.186 | [18] 0.01 | [19] 0.113
active: [2] -0.436

CCDC102A (UniProt Q96A19)
inactive: [1] 0.194 | [2] 0.087 | [3] -0.207 | [4] 0.087 | [5] -0.031 | [7] 0.004 | [8] -0.255 | [9] 0.024 | [11] 0.142 | [15] 0.073 | [18] 0.076

CCDC144A (UniProt A2RUR9)
inactive: [1] 0.168 | [2] -0.08 | [3] 0.066 | [4] -0.107 | [5] -0.024 | [7] -0.208 | [8] -0.083 | [9] 0.121 | [11] -0.092 | [15] 0.134 | [17] 0.055 | [18] -0.127

CCDC126 (UniProt Q96EE4)
inactive: [1] 0.061 | [3] 0.035 | [15] 0.028 | [18] 0.086

CCDC50 (UniProt Q8IVM0)
inactive: [1] -0.065 | [3] 0.089 | [5] 0.092 | [6] 0.144 | [8] -0.09 | [9] -0.032 | [10] 0.115 | [11] 0.116 | [12] 0.089 | [13] -0.051 | [14] -0.048 | [15] -0.056 | [16] 0.022 | [18] -0.071 | [19] -0.007 | [20] 0.164

CCDC152 (UniProt Q4G0S7)
inactive: [1] -0.125 | [2] 0.013 | [3] 0.194 | [4] 0.174 | [7] 0.039 | [15] 0.159 | [17] -0.093 | [18] 0.024

CASP7 isoform 3 (UniProt P55210)
inactive: [1] 0.104 | [3] 0.008 | [5] -0.086 | [6] 0.019 | [8] -0.013 | [9] 0.098 | [10] 0.241 | [11] 0 | [12] 0.125 | [13] -0.118 | [14] -0.012 | [15] -0.123 | [16] -0.029 | [17] -0.161 | [18] 0.043 | [19] -0.124 | [20] -0.052

CBLL1 (UniProt Q75N03)
inactive: [1] 0.055 | [2] -0.039 | [3] 0.112 | [4] -0.083 | [6] 0.001 | [7] -0.052 | [8] -0.019 | [9] 0.011 | [10] -0.035 | [12] -0.022 | [13] 0.042 | [14] 0.013 | [15] -0.068 | [16] -0.045 | [17] 0.029 | [18] 0.033 | [19] -0.008 | [20] -0.026

CCDC43 isoform 2 (UniProt Q96MW1)
inactive: [1] 0.05 | [3] -0.04 | [15] -0.08

CCND2 (UniProt P30279)
inactive: [1] -0.023 | [3] 0.139 | [5] -0.006 | [6] -0.051 | [10] -0.101 | [11] -0.045 | [12] -0.029 | [13] -0.002 | [14] -0.005 | [15] -0.052 | [16] -0.49 | [17] -0.015 | [18] 0.024 | [19] -0.098 | [20] -0.161

CD276 (UniProt Q5ZPR3)
inactive: [1] 0.019 | [3] -0.014 | [6] -0.049 | [10] 0.051 | [13] -0.145 | [14] -0.114 | [15] -0.043 | [19] 0.151

CCDC167 (UniProt Q9P0B6)
inactive: [1] -0.018 | [3] -0.205 | [5] -0.058 | [11] 0.019 | [15] -0.044 | [16] 0.059 | [18] 0.047

CD46 (UniProt P15529)
inactive: [1] -0.009 | [3] -0.045 | [15] -0.166 | [18] 0.055

CD68 (UniProt P34810)
inactive: [1] 0.02 | [3] -0.033 | [8] 0.325 | [9] -0.377 | [15] 0.049 | [18] 0.025

CCDC130 (UniProt P13994)
inactive: [1] -0.045 | [3] 0.28 | [5] 0.032 | [6] -0.224 | [8] -0.152 | [9] -0.016 | [10] 0.025 | [11] -0.232 | [13] 0.181 | [14] 0.077 | [15] -0.112 | [18] 0.252 | [19] 0.072

CD80 (UniProt P33681)
inactive: [1] -0.139 | [2] 0.041 | [3] 0.063 | [4] -0.013 | [6] -0.087 | [7] -0.02 | [8] 0.058 | [9] -0.029 | [10] 0.096 | [12] 0.034 | [13] 0.207 | [14] -0.051 | [15] -0.136 | [16] 0.106 | [17] -0.084 | [18] 0.043 | [19] -0.119 | [20] 0.014

Reprinted from above (2 entries):
CCDC126 (UniProt Q96EE4)
inactive: [1] 0.061 | [3] 0.035 | [15] 0.028 | [18] 0.086

CCDC50 (UniProt Q8IVM0)
inactive: [1] -0.065 | [3] 0.089 | [5] 0.092 | [6] 0.144 | [8] -0.09 | [9] -0.032 | [10] 0.115 | [11] 0.116 | [12] 0.089 | [13] -0.051 | [14] -0.048 | [15] -0.056 | [16] 0.022 | [18] -0.071 | [19] -0.007 | [20] 0.164

The results go on:

CCT3 (UniProt E9PM09)
inactive: [1] -0.214 | [2] 0.38 | [3] 0.791 | [4] -0.092 | [5] -0.114 | [6] 0.101 | [7] -0.098 | [8] 0.051 | [9] -0.223 | [10] -0.15 | [11] -0.145 | [12] -0.032 | [13] -0.253 | [14] 0.184 | [15] 0.148 | [16] -0.155 | [17] -0.227 | [19] -0.162 | [20] 0.003

CD164 (UniProt Q04900)
inactive: [1] -0.011 | [3] 0.27 | [15] -0.011 | [18] 0.123

CCND3 (UniProt P30281)
inactive: [1] -0.034 | [3] 0.064 | [5] -0.03 | [6] 0.106 | [8] -0.228 | [9] 0.116 | [10] 0.033 | [11] 0.122 | [13] 0.039 | [14] 0 | [15] 0.032 | [16] -0.104 | [17] -0.063 | [18] -0.021 | [19] -0.067
